Results taken from the supplement of paper PMC8728848.
The list shows a part of the results.

Assays:
Experiment in all cases: glycan array binding signal (z-score within array); higher = stronger binding
Conditions in all cases: glycan notation: IUPAC condensed, linker removed
Fuc(a1-2)Gal = biological target: Fuc(a1-2)Gal
How it was run: (§1)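 Negative Z-scores can be read as non-binding. The Z-score is calculated within each array and then averaged across arrays of one protein sequence at different concentrations or buffers and across linkers. Arrays, 3228 in all, were curated from the Consortium for Functional Glycomics database and kept only where the protein sequence was available.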

Fuc(a1-2)Gal(b1-3)GalNAc = biological target: Fuc(a1-2)Gal(b1-3)GalNAc
How it was run: as §1

[1] = biological target: Fuc(a1-2)Gal(b1-3)GalNAc(a1-3)[Fuc(a1-2)]Gal(b1-4)Glc
How it was run: as §1

[2] = biological target: Fuc(a1-2)Gal(b1-3)GalNAc(a1-3)[Fuc(a1-2)]Gal(b1-4)GlcNAc
How it was run: as §1

[3] = biological target: Fuc(a1-2)Gal(b1-3)GalNAc(b1-3)Gal
How it was run: as §1

[4] = biological target: Fuc(a1-2)Gal(b1-3)GalNAc(b1-3)Gal(a1-4)Gal(b1-4)Glc
How it was run: as §1

[5] = biological target: Fuc(a1-2)Gal(b1-3)GalNAc(b1-4)[Neu5Ac(a2-3)]Gal(b1-4)Glc
How it was run: as §1

Fuc(a1-2)Gal(b1-3)GlcNAc = biological target: Fuc(a1-2)Gal(b1-3)GlcNAc
How it was run: as §1

[6] = biological target: Fuc(a1-2)Gal(b1-3)GlcNAc(b1-2)Man(a1-3)[Fuc(a1-2)Gal(b1-3)GlcNAc(b1-2)Man(a1-6)]Man(b1-4)GlcNAc(b1-4)GlcNAc
How it was run: as §1

[7] = biological target: Fuc(a1-2)Gal(b1-3)GlcNAc(b1-3)Gal(b1-4)Glc
How it was run: as §1

[8] = biological target: Fuc(a1-2)Gal(b1-3)GlcNAc(b1-3)[Fuc(a1-3)[Gal(b1-4)]GlcNAc(b1-6)]Gal(b1-4)Glc
How it was run: as §1

[9] = biological target: Fuc(a1-2)Gal(b1-3)GlcNAc(b1-3)[Gal(b1-4)[Fuc(a1-3)]GlcNAc(b1-6)]Gal(b1-4)Glc
How it was run: as §1

[10] = biological target: Fuc(a1-2)Gal(b1-3)[Fuc(a1-4)]GlcNAc
How it was run: as §1

[11] = biological target: Fuc(a1-2)Gal(b1-3)[Fuc(a1-4)]GlcNAc(b1-2)Man(a1-3)[Fuc(a1-2)Gal(b1-3)[Fuc(a1-4)]GlcNAc(b1-2)Man(a1-6)]Man(b1-4)GlcNAc(b1-4)GlcNAc
How it was run: as §1

[12] = biological target: Fuc(a1-2)Gal(b1-3)[Fuc(a1-4)]GlcNAc(b1-3)[Fuc(a1-3)[Gal(b1-4)]GlcNAc(b1-6)]Gal(b1-4)Glc
How it was run: as §1

[13] = biological target: Fuc(a1-2)Gal(b1-3)[Fuc(a1-4)]GlcNAc(b1-3)[Gal(b1-4)GlcNAc(b1-6)]Gal(b1-4)Glc
How it was run: as §1

Fuc(a1-2)Gal(b1-4)Glc = biological target: Fuc(a1-2)Gal(b1-4)Glc
How it was run: as §1

Fuc(a1-2)Gal(b1-4)Glc6S = biological target: Fuc(a1-2)Gal(b1-4)Glc6S
How it was run: as §1

Fuc(a1-2)Gal(b1-4)GlcNAc = biological target: Fuc(a1-2)Gal(b1-4)GlcNAc
How it was run: as §1

[14] = biological target: Fuc(a1-2)Gal(b1-4)GlcNAc(b1-2)Man(a1-3)[Fuc(a1-2)Gal(b1-4)GlcNAc(b1-2)Man(a1-6)]Man(b1-4)GlcNAc(b1-4)GlcNAc
How it was run: as §1

[15] = biological target: Fuc(a1-2)Gal(b1-4)GlcNAc(b1-3)Gal(b1-4)GlcNAc
How it was run: as §1

[16] = biological target: Fuc(a1-2)Gal(b1-4)GlcNAc(b1-3)Gal(b1-4)GlcNAc(b1-3)Gal(b1-4)GlcNAc
How it was run: as §1

[17] = biological target: Fuc(a1-2)Gal(b1-4)GlcNAc(b1-3)GalNAc
How it was run: as §1

[18] = biological target: Fuc(a1-2)Gal(b1-4)GlcNAc6S
How it was run: as §1

[19] = biological target: Fuc(a1-2)Gal(b1-4)[Fuc(a1-3)]GlcNAc
How it was run: as §1

[20] = biological target: Fuc(a1-2)Gal(b1-4)[Fuc(a1-3)]GlcNAc(b1-2)Man(a1-3)[Fuc(a1-2)Gal(b1-4)[Fuc(a1-3)]GlcNAc(b1-2)Man(a1-6)]Man(b1-4)GlcNAc(b1-4)GlcNAc
How it was run: as §1

[21] = biological target: Fuc(a1-2)Gal(b1-4)[Fuc(a1-3)]GlcNAc(b1-3)Gal(b1-4)[Fuc(a1-3)]GlcNAc
How it was run: as §1

[22] = biological target: Fuc(a1-2)Gal(b1-4)[Fuc(a1-3)]GlcNAc(b1-3)Gal(b1-4)[Fuc(a1-3)]GlcNAc(b1-3)Gal(b1-4)[Fuc(a1-3)]GlcNAc
How it was run: as §1

Fuc(a1-2)Gal6S(b1-4)Glc = biological target: Fuc(a1-2)Gal6S(b1-4)Glc
How it was run: as §1

[23] = biological target: Fuc(a1-2)Gal6S(b1-4)Glc6S
How it was run: as §1

B1: SBD (Rhizopus oryzae), P07683 (protein)
chain: ASIPSSASVQLDSYNYDGSTFSGKIYVKNIAYSKKVTVVYADGSDNWNNNGNIIAASFSGPISGSNYEYWTFSASVKGIKEFYIKYEVSGKTYYDNNNSANYQVS
Question: With B1 as the binder, how does the “glycan array binding signal (z-score)” value (Fuc(a1-2)Gal) read?
Answer: -0.246

Question: What about the “glycan array binding signal (z-score)” value (Fuc(a1-2)Gal(b1-3)GalNAc) of the same binder?
Answer: 0.019

Question: What about the “glycan array binding signal (z-score)” value [1] of the same binder?
Answer: -0.763

Question: And the “glycan array binding signal (z-score)” value [2]?
Answer: 0.422

Question: What about the “glycan array binding signal (z-score)” value [3] of the same binder?
Answer: 2.93

Question: And the “glycan array binding signal (z-score)” value [4]?
Answer: 0.514

Question: And the “glycan array binding signal (z-score)” value [5]?
Answer: -0.151

Question: And the “glycan array binding signal (z-score)” value (Fuc(a1-2)Gal(b1-3)GlcNAc)?
Answer: 0.141

Question: And the “glycan array binding signal (z-score)” value [6]?
Answer: 0.366

Question: What about the “glycan array binding signal (z-score)” value [7] of the same binder?
Answer: 2.1

Question: And the “glycan array binding signal (z-score)” value [8]?
Answer: 0.446

Question: What about the “glycan array binding signal (z-score)” value [9] of the same binder?
Answer: -0.196

Question: What about the “glycan array binding signal (z-score)” value [10] of the same binder?
Answer: 0.008

Question: What about the “glycan array binding signal (z-score)” value [11] of the same binder?
Answer: 1.09

Question: And the “glycan array binding signal (z-score)” value [12]?
Answer: -0.892

Question: And the “glycan array binding signal (z-score)” value [13]?
Answer: -0.553

Question: And the “glycan array binding signal (z-score)” value (Fuc(a1-2)Gal(b1-4)Glc)?
Answer: -0.623

Question: And the “glycan array binding signal (z-score)” value (Fuc(a1-2)Gal(b1-4)Glc6S)?
Answer: 0.004

Question: And the “glycan array binding signal (z-score)” value (Fuc(a1-2)Gal(b1-4)GlcNAc)?
Answer: -0.048

Question: What about the “glycan array binding signal (z-score)” value [14] of the same binder?
Answer: 0.71

Question: What about the “glycan array binding signal (z-score)” value [15] of the same binder?
Answer: 0.056

Question: And the “glycan array binding signal (z-score)” value [16]?
Answer: -0.154

Question: What about the “glycan array binding signal (z-score)” value [17] of the same binder?
Answer: 0.64

Question: And the “glycan array binding signal (z-score)” value [18]?
Answer: -0.307

Question: And the “glycan array binding signal (z-score)” value [19]?
Answer: -0.216

Question: What about the “glycan array binding signal (z-score)” value [20] of the same binder?
Answer: 0.821

Question: And the “glycan array binding signal (z-score)” value [21]?
Answer: -0.351

Question: And the “glycan array binding signal (z-score)” value [22]?
Answer: 0.184

Question: And the “glycan array binding signal (z-score)” value (Fuc(a1-2)Gal6S(b1-4)Glc)?
Answer: -0.065

Question: And the “glycan array binding signal (z-score)” value [23]?
Answer: -0.187
